Laboratory results reported in paper PMC10298087.

Key:
[1] = biological target: T1, FLAG-tagged mouse Trim28-K305Q (mouse) (UniProt Q62318); assay: co-IP; FLAG-tagged mouse Trim28 (WT or mutants) and Gal4^DBD-KRAB in TRIM28-knockout K562 cells; IP with anti-FLAG, Western blot with anti-FLAG and anti-Gal4; whole-cell extract buffer with 300 mM NaCl, 0.1% Triton X-100, 4 °C
T1 sequence: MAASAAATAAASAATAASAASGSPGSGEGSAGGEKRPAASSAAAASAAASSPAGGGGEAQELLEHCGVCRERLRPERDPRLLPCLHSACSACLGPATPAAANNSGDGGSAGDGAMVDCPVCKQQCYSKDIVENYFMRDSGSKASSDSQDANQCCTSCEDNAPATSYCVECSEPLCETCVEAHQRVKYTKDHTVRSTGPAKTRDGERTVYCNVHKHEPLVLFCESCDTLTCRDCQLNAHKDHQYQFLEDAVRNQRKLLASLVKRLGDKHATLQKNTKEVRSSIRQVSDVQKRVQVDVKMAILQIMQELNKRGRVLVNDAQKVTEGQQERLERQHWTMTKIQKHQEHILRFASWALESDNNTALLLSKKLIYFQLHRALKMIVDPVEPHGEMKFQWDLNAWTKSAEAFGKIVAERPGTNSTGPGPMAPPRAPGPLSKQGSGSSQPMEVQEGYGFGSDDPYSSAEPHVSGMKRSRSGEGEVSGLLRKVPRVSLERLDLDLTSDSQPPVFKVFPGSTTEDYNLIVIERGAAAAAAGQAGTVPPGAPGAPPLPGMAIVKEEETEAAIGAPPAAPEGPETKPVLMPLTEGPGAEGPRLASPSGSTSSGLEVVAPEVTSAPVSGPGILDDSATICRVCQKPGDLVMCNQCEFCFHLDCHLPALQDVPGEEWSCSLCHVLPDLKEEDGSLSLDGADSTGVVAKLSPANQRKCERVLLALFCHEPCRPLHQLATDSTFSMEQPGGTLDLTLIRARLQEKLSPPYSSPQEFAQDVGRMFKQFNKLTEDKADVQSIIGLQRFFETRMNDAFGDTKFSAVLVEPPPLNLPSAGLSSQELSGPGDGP

[2] = biological target: T1, FLAG-tagged mouse Trim28-K305Q (mouse); assay: native gel or EMSA; nuclear extracts of HEK293T cells transfected with Gal4^DBD-KRAB and FLAG-Trim28; 32P-labelled Gal4-binding elements; supershift with anti-Gal4 or anti-FLAG; room temperature; 5% native gel
[3] = biological target: T2, HA-tagged human TRIM28-K304Q (human) (UniProt Q13263); assay: co-IP; HA-tagged human TRIM28 (WT, K304Q, K304R) and Gal4^DBD-KRAB in K562 cells; anti-HA agarose; whole-cell extract buffer with 300 mM NaCl, 0.1% Triton X-100, 4 °C
T2 sequence: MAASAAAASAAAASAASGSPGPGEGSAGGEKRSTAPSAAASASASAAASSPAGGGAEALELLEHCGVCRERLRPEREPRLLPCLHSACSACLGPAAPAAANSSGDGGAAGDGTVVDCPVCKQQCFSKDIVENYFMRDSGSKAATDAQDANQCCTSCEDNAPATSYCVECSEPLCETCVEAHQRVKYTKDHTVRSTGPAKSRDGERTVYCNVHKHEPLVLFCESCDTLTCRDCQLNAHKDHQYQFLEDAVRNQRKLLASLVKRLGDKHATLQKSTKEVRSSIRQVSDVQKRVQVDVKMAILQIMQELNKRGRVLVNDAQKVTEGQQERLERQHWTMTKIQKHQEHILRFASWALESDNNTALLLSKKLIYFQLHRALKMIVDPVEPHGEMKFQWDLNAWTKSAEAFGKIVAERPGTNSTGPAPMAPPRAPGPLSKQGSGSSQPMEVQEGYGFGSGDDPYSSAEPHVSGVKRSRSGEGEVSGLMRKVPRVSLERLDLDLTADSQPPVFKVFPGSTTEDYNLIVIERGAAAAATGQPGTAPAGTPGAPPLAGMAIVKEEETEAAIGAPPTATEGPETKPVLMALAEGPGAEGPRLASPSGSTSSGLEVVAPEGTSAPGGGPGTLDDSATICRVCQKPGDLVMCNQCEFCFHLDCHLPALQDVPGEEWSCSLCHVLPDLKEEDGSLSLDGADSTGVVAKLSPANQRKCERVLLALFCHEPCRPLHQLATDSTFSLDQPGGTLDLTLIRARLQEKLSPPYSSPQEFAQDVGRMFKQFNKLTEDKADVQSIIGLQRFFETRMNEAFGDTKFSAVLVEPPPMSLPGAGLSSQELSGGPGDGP

[4] = biological target: T3, HA-tagged human TRIM28-K304R (human) (UniProt Q13263); assay: as above
T3 sequence: T2 sequence with Q304R

- binding [1]: binds
- binding [2]: binds
- binding [3]: binds weakly
- binding [4]: binds
Substance: Gal4 DNA-binding domain (Gal4^DBD)-KRAB (domain or fragment)

Residue numbers refer to the chain shown, from its start. Results are given in words; binding and its absence hold for the method and conditions named. Binding calls can cover weak binding; strength is not graded here. Tags and fused reporters may be left off the sequences shown. For some of these results: Binding seen in cells or lysates may run through a third protein.
